The experiment addresses T1, aromatase (CYP19) (Homo sapiens, UniProt P11511).
T1 construct: aromatase (CYP19) in human placental microsomes; from tissue; host or cells: human placenta, microsomes
T1 sequence (P11511 1-503): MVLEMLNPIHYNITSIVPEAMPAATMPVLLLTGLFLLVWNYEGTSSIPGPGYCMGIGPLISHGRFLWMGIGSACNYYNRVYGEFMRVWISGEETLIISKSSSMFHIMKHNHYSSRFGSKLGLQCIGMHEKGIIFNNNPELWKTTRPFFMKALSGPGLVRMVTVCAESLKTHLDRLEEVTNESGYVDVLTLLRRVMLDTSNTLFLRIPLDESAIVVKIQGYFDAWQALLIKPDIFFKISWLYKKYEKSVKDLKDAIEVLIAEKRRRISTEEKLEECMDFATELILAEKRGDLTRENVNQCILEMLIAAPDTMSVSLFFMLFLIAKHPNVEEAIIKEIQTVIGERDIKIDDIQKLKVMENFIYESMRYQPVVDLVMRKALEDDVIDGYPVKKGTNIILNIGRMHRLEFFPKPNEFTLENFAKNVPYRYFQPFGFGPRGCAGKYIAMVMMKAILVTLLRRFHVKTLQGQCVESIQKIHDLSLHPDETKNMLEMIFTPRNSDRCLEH
Kind of experiment: Aromatase, conversion of androstenedione to estrone in human placental microsomes. It counts as biochemical.

From PMC2375285, “Inhibition of all-TRANS-retinoic acid metabolism by R116010 induces antitumour activity” (British Journal of Cancer, 2002) come the findings set out here.

pIC50: −log10 of the molar value.

As for `Clc1cccc(C(c2ccc3[nH]cnc3c2)n2ccnc2)c1.Clc1cccc(C(c2ccc3[nH]cnc3c2)n2ccnc2)c1.O=C(O)/C=C/C(=O)O.O=C(O)/C=C/C(=O)O.O=C(O)/C=C/C(=O)O` (racemic) [liarozole-fumarate, ±-5-[(3-chlorophenyl)(1H-imidazole-1-yl)methyl]-1H-benzimidazole (E)-2-butenedioate (2:3), reference compound], the pIC50 is 8.52.
